# Reference: PubChem BioAssay AID504784 (Drosophila RNAi Screening Center, 2011)
# Assay: 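Search for regulators of lipid droplet storage in oleate-fed fly cells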 (primary screen)
# Cells: Drosophila Kc167 embryonic cells
# Reagents: long dsRNA against Drosophila genes, about 250 ng dsRNA per well
# Timing: 4 days
# Challenge: cells fed 400 µM oleic acid bound to BSA
# Measurement: 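Microscope images give a droplet-to-nucleus area ratio, taken as log and converted to a screen-wide B-score; higher values mean greater lipid storage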
# Scale: droplet/nuclear area B-score: higher = more stored lipid (overstorage)
# The screen tested about 17,000 reagents; this is an unselected part of those that have a named target and a result. 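Each column is one replicate's B-score; the combined score over replicates was not deposited, so single values may mislead.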 Names joined by + are all predicted targets of the reagent.
Gene,dsRNA,"droplet/nuclear area B-score, replicate 1","droplet/nuclear area B-score, replicate 2","droplet/nuclear area B-score, replicate 3"
CG8738 (GeneID 35855),DRSC07256,0.159,0.561,
BCAS2 (GeneID 43348),DRSC15693,-0.733,-0.344,
TwdlP (GeneID 43201),DRSC14734,-0.58,-0.72,
ssp2 (GeneID 39540),DRSC11052,0.575,-0.434,-0.327
CG11322 (GeneID 33949),DRSC02142,3.3,0.733,
CG6845 (GeneID 38019),DRSC08576,,-2.49,
CG5510 (GeneID 42872),DRSC15823,-0.234,0.0309,
CG31465 (GeneID 42577),DRSC16090,0.104,-1.75,
Cyp6t1 (GeneID 33127),DRSC20564,1.01,1.39,
CG9886 (GeneID 33431),DRSC00732,-0.703,0.227,
CG13950 (GeneID 33267),DRSC00368,0.591,0.369,
CG7341 (GeneID 40004),DRSC10818,-0.439,-0.79,0.0267
cpx (GeneID 64877),DRSC11999,-0.0705,0.0687,
Srg3 (GeneID 39092),DRSC08984,-0.169,0.012,
Srg3 (GeneID 39092),DRSC10178,-0.0108,0.193,
Eh (GeneID 42101),DRSC16660,-1.1,-1.06,
dia (GeneID 35340),DRSC03519,0.0721,0.126,
RanBP3 (GeneID 42804),DRSC14217,-0.0102,0.521,
RanBP3 (GeneID 42804),DRSC23153,1.22,-0.0199,
CG31183 (GeneID 41927),DRSC14403,-1.41,-1.75,
CG31183 (GeneID 41927),DRSC15554,-0.517,0.549,
msi (GeneID 43087),DRSC17003,0.583,-1.02,
bonsai (GeneID 37587),DRSC04453,-0.0421,0.503,
TotX (GeneID 117460),DRSC22206,3.81,-0.0933,
CG6216 (GeneID 39257),DRSC10606,0.286,0.386,
Gdap2 (GeneID 59173),DRSC06789,1.85,-0.018,
Gdap2 (GeneID 59173),DRSC06790,0.54,0.68,
comm3 (GeneID 39696),DRSC09993,-0.922,2.01,
comm3 (GeneID 39696),DRSC09994,0.414,-0.18,
comm3 (GeneID 39696),DRSC09995,1.05,0.267,
Set (GeneID 41844),DRSC16861,,4.13,
CG30156 (GeneID 246488),DRSC04959,-1.32,1.36,
UK114 (GeneID 34897),DRSC01973,0.389,-0.767,
CG5592 (GeneID 38662),DRSC10524,0.94,2.46,
Vps4 (GeneID 32777),DRSC19338,1.2,0.544,
CG46339 (GeneID 44359),DRSC14136,-0.461,-0.688,
papi (GeneID 33401),DRSC00693,1.35,0.0365,
Mondo (GeneID 35402),DRSC02667,-0.0722,-3.83,
Mondo (GeneID 35402),DRSC02668,0.763,-1.61,
Mondo (GeneID 35402),DRSC22006,-0.0245,-0.599,
Nop17l (GeneID 35730),DRSC06556,-3.38,-0.138,
Abd-B (GeneID 47763),DRSC14098,-1.71,-0.0951,
Abd-B (GeneID 47763),DRSC14337,-1.64,0.913,
Dbp80 (GeneID 3354919),DRSC22034,-0.701,-0.481,
ath (GeneID 34357),DRSC02788,0.067,0.722,
mmd (GeneID 32561),DRSC19672,1.63,,
mmd (GeneID 32561),DRSC19673,0.333,0.0941,
mmd (GeneID 32561),DRSC20161,-0.0547,0.371,
mmd (GeneID 32561),DRSC23042,-0.0412,-0.0241,
dysc (GeneID 39533),DRSC10273,0.501,-0.57,-0.613
dysc (GeneID 39533),DRSC11040,-1.21,0.801,
dysc (GeneID 39533),DRSC22334,-0.398,-0.545,
dysc (GeneID 39533),DRSC22824,-0.747,0.873,
CG9875 (GeneID 37698),DRSC04585,-0.618,-0.0811,
Alg13 (GeneID 43443),DRSC14864,-0.945,1.78,-0.0742
CG7300 (GeneID 34472),DRSC03044,1.4,,
CG12531 (GeneID 32986),DRSC19466,-2.08,-0.26,
CG8132 (GeneID 41121),DRSC16383,-0.109,-1.34,
CG13272 (GeneID 35013),DRSC02249,-0.325,0.0831,
CG13272 (GeneID 35013),DRSC22910,-0.299,0.000844,
CG2865 (GeneID 31217),DRSC18527,-1.06,-0.00339,
CG2865 (GeneID 31217),DRSC18528,0.138,-0.0311,
CG2217 + CG42740,DRSC14141,2.33,1.03,
Fit2 (GeneID 39907),DRSC10908,0.0237,0.0429,0.587
CG33477 (GeneID 2768726),DRSC22934,-1.49,0.416,
CG13806 (GeneID 38292),DRSC08341,-0.698,0.0967,
CG42445 (GeneID 8674111),DRSC10858,-1.38,-0.0119,
CG14113 (GeneID 50287),DRSC10116,1.26,0.7,
CG15412 (GeneID 33553),DRSC00427,0.328,0.434,
CG42233 (GeneID 43754),DRSC14328,-0.202,-2.28,
CG42233 (GeneID 43754),DRSC15416,0.91,-0.0678,
AQP (GeneID 36456),DRSC06122,-0.904,0.0245,
CG2120 (GeneID 31737),DRSC18207,0.679,-0.112,
Fatp2 (GeneID 37657),DRSC03971,1.59,0.255,
Fatp2 (GeneID 37657),DRSC04178,-2.49,-0.0901,
Fatp2 (GeneID 37657),DRSC04330,-0.444,0.512,
CG16888 (GeneID 34789),DRSC02541,0.516,0.703,
CkIIalpha-i3 (GeneID 38088),DRSC08651,-0.378,-1.34,
Or85e (retired record) (GeneID 3772269),DRSC16768,-2.09,-0.919,
nahoda (GeneID 37641),DRSC03954,-1.17,-1.28,
nahoda (GeneID 37641),DRSC04126,1.35,-0.1,
Jhbp7 (GeneID 43035),DRSC14408,-2.45,-0.00756,
Ugt49B1 (GeneID 37420),DRSC04461,1.62,,
